Taken from: PubChem BioAssay AID1259254 (NCATS, 2017)

- Aim: 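Gene knock-downs that lead to re-replication, shown by excess G2 DNA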 (primary screen)
- Cell system: human HCT116 colorectal cancer cells
- Knock-down reagent: single siRNA against human genes
- Duration: 3 days
- Measurement: 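Imaged Hoechst DNA stain sorts each cell into a cycle phase by DNA amount; per plate, G2 fraction set to 0% for non-targeting and 100% for GMNN siRNA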
- Reading the numbers: G2 robust z-score: higher = more G2 cells, more excess DNA replication
- Rule for the call: 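An siRNA counts as active if its G2 robust z-score lies at least 5 MADs above the screen median; here such calls match roughly 38% of GMNN control or more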
In all, the deposit lists about 59,000 reagents; below is a random part of them. Of all reagents, about 1,550 (2.6%) got an active call. 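G2 share is only a proxy for re-replication; each gene was hit by three separate siRNAs, and active genes were retested.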 Reagents against one gene are numbered here. Further read-outs or replicates are left out here. Not given: the amount of reagent.

{"Gene": "PPP1R13B (GeneID 23368)", "reagent no.": 1, "G2 robust z-score": 0.0206, "activity call": "inactive"}
{"Gene": "PPP1R13B (GeneID 23368)", "reagent no.": 2, "G2 robust z-score": 0.0238, "activity call": "inactive"}
{"Gene": "PPP1R13B (GeneID 23368)", "reagent no.": 3, "G2 robust z-score": -0.349, "activity call": "inactive"}
{"Gene": "ELF2 (GeneID 1998)", "reagent no.": 1, "G2 robust z-score": -0.769, "activity call": "inactive"}
{"Gene": "ELF2 (GeneID 1998)", "reagent no.": 2, "G2 robust z-score": -0.358, "activity call": "inactive"}
{"Gene": "ELF2 (GeneID 1998)", "reagent no.": 3, "G2 robust z-score": -0.117, "activity call": "inactive"}
{"Gene": "SAMD15 (GeneID 161394)", "reagent no.": 1, "G2 robust z-score": 5, "activity call": "inactive"}
{"Gene": "SAMD15 (GeneID 161394)", "reagent no.": 2, "G2 robust z-score": -0.862, "activity call": "inactive"}
{"Gene": "SAMD15 (GeneID 161394)", "reagent no.": 3, "G2 robust z-score": 2.48, "activity call": "inactive"}
{"Gene": "MGAM (GeneID 8972)", "reagent no.": 1, "G2 robust z-score": -0.908, "activity call": "inactive"}
{"Gene": "MGAM (GeneID 8972)", "reagent no.": 2, "G2 robust z-score": -0.943, "activity call": "inactive"}
{"Gene": "MGAM (GeneID 8972)", "reagent no.": 3, "G2 robust z-score": -1.06, "activity call": "inactive"}
{"Gene": "AUNIP (GeneID 79000)", "reagent no.": 1, "G2 robust z-score": 1.9, "activity call": "inactive"}
{"Gene": "AUNIP (GeneID 79000)", "reagent no.": 2, "G2 robust z-score": 0.17, "activity call": "inactive"}
{"Gene": "AUNIP (GeneID 79000)", "reagent no.": 3, "G2 robust z-score": -0.56, "activity call": "inactive"}

2 of these entries in another layout:
{"Gene":"PPP1R13B (GeneID 23368)","reagent no.":1,"G2 robust z-score":0.0206,"activity call":"inactive"}
{"Gene":"PPP1R13B (GeneID 23368)","reagent no.":2,"G2 robust z-score":0.0238,"activity call":"inactive"}

Next results:
{"Gene": "MCHR2 (GeneID 84539)", "reagent no.": 1, "G2 robust z-score": 0.983, "activity call": "inactive"}
{"Gene": "MCHR2 (GeneID 84539)", "reagent no.": 2, "G2 robust z-score": -0.673, "activity call": "inactive"}
{"Gene": "MCHR2 (GeneID 84539)", "reagent no.": 3, "G2 robust z-score": -0.368, "activity call": "inactive"}
{"Gene": "PWP1 (GeneID 11137)", "reagent no.": 1, "G2 robust z-score": 1.83, "activity call": "inactive"}
{"Gene": "PWP1 (GeneID 11137)", "reagent no.": 2, "G2 robust z-score": -0.303, "activity call": "inactive"}
{"Gene": "PWP1 (GeneID 11137)", "reagent no.": 3, "G2 robust z-score": -0.342, "activity call": "inactive"}
{"Gene": "TIMM17B (GeneID 10245)", "reagent no.": 1, "G2 robust z-score": -0.0966, "activity call": "inactive"}
{"Gene": "TIMM17B (GeneID 10245)", "reagent no.": 2, "G2 robust z-score": -0.101, "activity call": "inactive"}
{"Gene": "TIMM17B (GeneID 10245)", "reagent no.": 3, "G2 robust z-score": 0.618, "activity call": "inactive"}
